According to patent US20260167638A1, “PHARMACEUTICAL COMPOUND, SALTS THEREOF, FORMULATIONS THEREOF, AND METHODS OF MAKING AND USING SAME” (Genentech, Inc., priority 2018, published 2026):
At least one structure is not confirmed: it was looked up by name or label, or the drawing left a doubt.

Test: Water sorption / dynamic vapor sorption (DVS) hygroscopicity
Assay type: physicochemical
Settings: crystalline form
Description: The pKa value of Compound I free base was calculated (ACD Labs pKa DB, v10.0) as 2.12±0.33. Therefore, Compound I free base was considered as a very weak base that could be protonated by strong acids. […] A sample of Compound I free base was analyzed by powder x-ray diffraction and found to be crystalline without any readily detectable amorphous content. […] (onset temperature).
The maximum water uptake for the amorphous salt was about 40% whereas the maximum water uptake for the crystalline di-hydrochloride salt was higher, with about 54% uptake.
The hygroscopic nature of the besylate salt was examined by dynamic vapor sorption analysis (DVS). […] Below 80% relative humidity not much water was adsorbed.

Cn1cc(-c2cn(-c3ccc(OC(F)(F)F)cc3)c(=O)c3ncn(C)c23)cn1 [Compound I, 1-methyl-7-(1-methyl-1H-pyrazol-4-yl)-5-(4-(trifluoromethoxy)phenyl)-1,5-dihydro-4H-imidazo[4,5-c]pyridin-4-one]
hygroscopicity: not hygroscopic
